Measured values taken from US6866837B2, “Radiolabeled peptides for the diagnosis and treatment of breast and prostate tumors and metastases of such tumors” (Mallinckrodt Inc., priority 1998, dated 2005).
At least one peptide structure holds a part that was inferred or is arguable (an end, a ring closure or a residue).

Amino acid sequences for entries named in this document (tags omitted). A change or cut given only in a name is not applied to a line headed by its entry.
UniProt P52500: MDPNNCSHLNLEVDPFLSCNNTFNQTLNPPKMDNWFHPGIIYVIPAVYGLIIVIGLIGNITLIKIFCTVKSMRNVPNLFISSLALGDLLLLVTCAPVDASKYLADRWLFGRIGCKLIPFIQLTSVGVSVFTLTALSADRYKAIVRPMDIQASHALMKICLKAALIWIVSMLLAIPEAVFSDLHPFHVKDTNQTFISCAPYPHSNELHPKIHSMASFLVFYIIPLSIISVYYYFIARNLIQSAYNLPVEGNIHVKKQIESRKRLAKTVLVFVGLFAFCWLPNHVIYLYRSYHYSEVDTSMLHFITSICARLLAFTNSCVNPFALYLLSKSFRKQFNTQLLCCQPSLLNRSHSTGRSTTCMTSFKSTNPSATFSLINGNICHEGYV

Biological target: bombesin receptor (Rattus norvegicus, UniProt P52500)
Assay: Affinity to the bombesin receptor
Type: binding

In the case of CSCC[C@H](NC(=O)[C@H](CC(C)C)NC(=O)[C@H](Cc1c[nH]cn1)NC(=O)CNC(=O)[C@@H](NC(=O)[C@H](C)NC(=O)[C@H](Cc1c[nH]c2ccccc12)NC(=O)[C@H](CCC(N)=O)NC(=O)[C@H](CC(N)=O)NC(=O)CNC(=O)[C@H](Cc1ccc(O)cc1)NC(=O)[C@H](CCCNC(=N)N)NC(=O)[C@H](CCC(N)=O)NC(=O)[C@@H]1CCCN1C(=O)CN(CCN(CCN(CC(=O)O)CC(=O)O)CC(=O)O)CC(=O)O)C(C)C)C(N)=O [[^111In-DTPA^0, Pro^1, Tyr^4] bombesin, metal not drawn], the “affinity to the bombesin receptor” value is reported as “intact high affinity”.
